The text below walks through data of PMC7512061.

The chains behind the UniProt entries cited, without tags or fusion partners.
UniProt Q00987: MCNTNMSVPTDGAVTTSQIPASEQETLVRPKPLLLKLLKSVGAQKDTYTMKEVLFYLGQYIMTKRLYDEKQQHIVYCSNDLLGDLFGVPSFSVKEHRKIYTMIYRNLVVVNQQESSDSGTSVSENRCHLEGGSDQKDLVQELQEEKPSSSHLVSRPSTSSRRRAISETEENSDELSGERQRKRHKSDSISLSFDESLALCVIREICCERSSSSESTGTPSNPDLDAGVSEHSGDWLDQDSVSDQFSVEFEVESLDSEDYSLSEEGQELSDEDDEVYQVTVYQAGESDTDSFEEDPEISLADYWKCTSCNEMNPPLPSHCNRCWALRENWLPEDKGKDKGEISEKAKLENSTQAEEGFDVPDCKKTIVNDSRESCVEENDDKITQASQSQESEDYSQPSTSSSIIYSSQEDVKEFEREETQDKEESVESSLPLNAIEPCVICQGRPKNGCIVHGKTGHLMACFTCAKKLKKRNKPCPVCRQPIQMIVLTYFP

The experiment concerns the target MDM2 (human (endogenous in NB-39-nu)) (UniProt Q00987). Nature of the experiment: co-IP; whole-cell lysates (5 mg, 1% NP-40 buffer) of NB-39-nu cells treated with 1 uM PF-477736 for 24 h; anti-MDM2 antibody (SMP14) or normal mouse IgG with protein-A/G magnetic beads, overnight at 4°C; blot with anti-AZI1 antibody.

No constants are given. Whether binding was seen depends on the method and setting. In cells and extracts the contact can be indirect. Some binding calls cover weakened binding; strength is not graded here.

B1: centrosome-associated protein 131 (CEP131) (protein, UniProt Q9UPN4 1-1083)
chain: MKGTRAIGSVPERSPAGVDLSLTGLPPPVSRRPGSAATTKPIVRSVSVVTGSEQKRKVLEATGPGGSQAINNLRRSNSTTQVSQPRSGSPRPTEPTDFLMLFEGSPSGKKRPASLSTAPSEKGATWNVLDDQPRGFTLPSNARSSSALDSPAGPRRKECTVALAPNFTANNRSNKGAVGNCVTTMVHNRYTPSERAPPLKSSNQTAPSLNNIIKAATCEGSESSGFGKLPKNVSSATHSARNNTGGSTGLPRRKEVTEEEAERFIHQVNQATVTIQRWYRHQVQRRGAGAARLEHLLQAKREEQRQRSGEGTLLDLHQQKEAARRKAREEKARQARRAAIQELQQKRALRAQKASTAERGPPENPRETRVPGMRQPAQELSPTPGGTAHQALKANNTGGGLPAAGPGDRCLPTSDSSPEPQQPPEDRTQDVLAQDAAGDNLEMMAPSRGSAKSRGPLEELLHTLQLLEKEPDVLPRPRTHHRGRYAWASEVTTEDDASSLTADNLEKFGKLSAFPEPPEDGTLLSEAKLQSIMSFLDEMEKSGQDQLDSQQEGWVPEAGPGPLELGSEVSTSVMRLKLEVEEKKQAMLLLQRALAQQRDLTARRVKETEKALSRQLQRQREHYEATIQRHLAFIDQLIEDKKVLSEKCEAVVAELKQEDQRCTERVAQAQAQHELEIKKLKELMSATEKARREKWISEKTKKIKEVTVRGLEPEIQKLIARHKQEVRRLKSLHEAELLQSDERASQRCLRQAEELREQLEREKEALGQQERERARQRFQQHLEQEQWALQQQRQRLYSEVAEERERLGQQAARQRAELEELRQQLEESSSALTRALRAEFEKGREEQERRHQMELNTLKQQLELERQAWEAGRTRKEEAWLLNREQELREEIRKGRDKEIELVIHRLEADMALAKEESEKAAESRIKRLRDKYEAELSELEQSERKLQERCSELKGQLGEAEGENLRLQGLVRQKERALEDAQAVNEQLSSERSNLAQVIRQEFEDRLAASEEETRQAKAELATLQARQQLELEEVHRRVKTALARKEEAVSSLRTQHEAAVKRADHLEELLEQHRRPTPSTK
Take B1: the binding entry was “binds”.
